Test results published in publication PMC9389318.
Results are given in words; binding and its absence hold for the method and conditions named. In cells and extracts the contact can be indirect. Some entries that bind do so weakly or less than the wild type. For part of these data: Tags and fused reporters may be left off the sequences shown.

By UniProt entry, the sequences of proteins in these tests, tags left out. Residues count along the entry.
UniProt P01833, residues 19-764: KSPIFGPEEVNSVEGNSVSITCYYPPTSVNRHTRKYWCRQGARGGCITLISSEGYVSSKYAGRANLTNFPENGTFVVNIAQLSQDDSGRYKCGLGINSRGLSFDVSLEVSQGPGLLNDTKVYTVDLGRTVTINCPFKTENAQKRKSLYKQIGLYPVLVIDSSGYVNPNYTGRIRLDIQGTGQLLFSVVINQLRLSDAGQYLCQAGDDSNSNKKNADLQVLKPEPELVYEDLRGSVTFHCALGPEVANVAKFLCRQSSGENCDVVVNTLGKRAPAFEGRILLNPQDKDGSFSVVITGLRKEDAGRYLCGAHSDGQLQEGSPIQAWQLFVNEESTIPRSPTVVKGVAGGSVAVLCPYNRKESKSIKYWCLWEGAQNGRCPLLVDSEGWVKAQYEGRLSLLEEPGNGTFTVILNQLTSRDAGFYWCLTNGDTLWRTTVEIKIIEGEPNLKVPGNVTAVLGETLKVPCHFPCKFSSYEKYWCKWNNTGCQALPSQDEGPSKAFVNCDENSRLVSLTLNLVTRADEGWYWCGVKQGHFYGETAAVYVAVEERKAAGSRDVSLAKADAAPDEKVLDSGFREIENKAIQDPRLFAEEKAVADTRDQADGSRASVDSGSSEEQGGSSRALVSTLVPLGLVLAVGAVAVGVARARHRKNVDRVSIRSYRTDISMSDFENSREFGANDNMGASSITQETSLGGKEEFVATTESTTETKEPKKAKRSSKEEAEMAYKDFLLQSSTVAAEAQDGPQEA
UniProt Q13751, residues 18-1172: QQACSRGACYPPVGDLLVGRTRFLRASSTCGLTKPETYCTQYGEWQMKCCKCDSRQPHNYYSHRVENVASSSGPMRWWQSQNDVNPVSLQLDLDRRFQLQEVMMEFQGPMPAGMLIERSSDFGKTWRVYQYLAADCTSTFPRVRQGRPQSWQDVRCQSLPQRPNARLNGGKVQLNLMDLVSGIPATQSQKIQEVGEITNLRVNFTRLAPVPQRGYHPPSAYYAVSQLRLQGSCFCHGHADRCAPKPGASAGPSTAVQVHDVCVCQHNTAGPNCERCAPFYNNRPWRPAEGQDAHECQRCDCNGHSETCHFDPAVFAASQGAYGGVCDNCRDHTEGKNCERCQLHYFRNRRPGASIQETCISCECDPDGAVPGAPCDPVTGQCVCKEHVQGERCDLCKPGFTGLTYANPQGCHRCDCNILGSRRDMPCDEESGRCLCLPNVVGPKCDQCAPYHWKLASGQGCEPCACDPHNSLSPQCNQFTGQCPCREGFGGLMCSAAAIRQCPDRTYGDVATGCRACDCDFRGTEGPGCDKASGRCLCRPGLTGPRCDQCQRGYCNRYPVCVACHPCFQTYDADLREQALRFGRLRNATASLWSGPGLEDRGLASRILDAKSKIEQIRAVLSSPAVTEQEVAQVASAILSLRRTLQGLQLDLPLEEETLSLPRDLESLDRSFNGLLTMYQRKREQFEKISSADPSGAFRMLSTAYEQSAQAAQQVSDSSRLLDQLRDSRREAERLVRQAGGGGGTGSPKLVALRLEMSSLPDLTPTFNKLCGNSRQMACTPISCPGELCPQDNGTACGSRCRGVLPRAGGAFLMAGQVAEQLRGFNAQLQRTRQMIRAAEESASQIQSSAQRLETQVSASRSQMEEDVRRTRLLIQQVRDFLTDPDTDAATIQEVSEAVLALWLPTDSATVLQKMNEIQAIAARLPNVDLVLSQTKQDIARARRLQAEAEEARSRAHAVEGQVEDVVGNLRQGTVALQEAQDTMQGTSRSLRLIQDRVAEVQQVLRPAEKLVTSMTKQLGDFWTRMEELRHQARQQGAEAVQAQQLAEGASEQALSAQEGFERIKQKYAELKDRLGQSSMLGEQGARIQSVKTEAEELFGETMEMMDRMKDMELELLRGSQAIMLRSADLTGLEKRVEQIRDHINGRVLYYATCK

Key:
[1] = molecular target: Polymeric immunoglobulin receptor (PIGR), as in the co-immunoprecipitation with LAMB3 (UniProt P01833); experiment: co-IP; co-immunoprecipitation of PIGR and LAMB3; IgG as control; cells, constructs and precipitating antibody not stated
[2] = molecular target: T1, RE1 silencing transcription factor (REST) tagged with Flag (UniProt Q13127); experiment: co-IP; RKO and HCT-8 cells transfected with PIGR-GFP and/or REST-Flag; lysed in non-ionic detergent RIPA buffer; precipitation with GFP antibody or with Flag antibody, blot for the partner
T1 sequence: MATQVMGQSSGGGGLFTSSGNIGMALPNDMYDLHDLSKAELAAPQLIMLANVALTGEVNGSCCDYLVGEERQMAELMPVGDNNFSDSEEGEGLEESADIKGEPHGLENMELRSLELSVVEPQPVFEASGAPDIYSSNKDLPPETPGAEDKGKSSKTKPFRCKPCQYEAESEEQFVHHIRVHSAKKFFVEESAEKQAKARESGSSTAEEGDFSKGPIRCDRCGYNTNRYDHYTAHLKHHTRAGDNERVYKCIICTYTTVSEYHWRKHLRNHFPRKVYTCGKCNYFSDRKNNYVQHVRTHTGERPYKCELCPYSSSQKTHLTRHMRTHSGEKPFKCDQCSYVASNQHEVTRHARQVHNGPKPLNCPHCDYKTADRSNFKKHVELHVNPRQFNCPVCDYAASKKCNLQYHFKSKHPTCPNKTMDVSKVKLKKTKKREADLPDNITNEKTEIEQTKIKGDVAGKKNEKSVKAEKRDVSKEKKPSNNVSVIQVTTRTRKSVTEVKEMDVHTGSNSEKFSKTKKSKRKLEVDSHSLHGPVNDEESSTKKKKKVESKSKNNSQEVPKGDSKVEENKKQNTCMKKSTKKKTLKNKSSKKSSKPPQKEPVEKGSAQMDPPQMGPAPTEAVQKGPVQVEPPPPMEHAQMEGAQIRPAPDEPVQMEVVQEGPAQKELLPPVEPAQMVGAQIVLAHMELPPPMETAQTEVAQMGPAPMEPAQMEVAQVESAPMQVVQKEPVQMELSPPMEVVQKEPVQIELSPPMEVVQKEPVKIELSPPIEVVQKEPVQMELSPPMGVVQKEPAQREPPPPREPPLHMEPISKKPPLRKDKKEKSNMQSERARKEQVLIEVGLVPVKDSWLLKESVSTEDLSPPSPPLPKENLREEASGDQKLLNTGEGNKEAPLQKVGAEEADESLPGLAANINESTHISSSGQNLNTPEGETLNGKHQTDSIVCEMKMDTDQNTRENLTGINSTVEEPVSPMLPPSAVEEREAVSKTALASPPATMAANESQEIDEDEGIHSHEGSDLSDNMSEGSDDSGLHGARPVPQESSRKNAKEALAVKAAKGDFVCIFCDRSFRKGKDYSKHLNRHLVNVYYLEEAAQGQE

[3] = molecular target: Polymeric immunoglobulin receptor (PIGR) tagged with GFP (UniProt P01833); experiment: as above

Laminin subunit beta 3 (LAMB3) (from UniProt Q13751 18-1172)
binding [1]: no binding

Polymeric immunoglobulin receptor (PIGR) tagged with GFP (from UniProt P01833 19-764)
binding [2]: binds

B1: RE1 silencing transcription factor (REST) tagged with Flag (protein, UniProt Q13127 1-1097)
chain: MATQVMGQSSGGGGLFTSSGNIGMALPNDMYDLHDLSKAELAAPQLIMLANVALTGEVNGSCCDYLVGEERQMAELMPVGDNNFSDSEEGEGLEESADIKGEPHGLENMELRSLELSVVEPQPVFEASGAPDIYSSNKDLPPETPGAEDKGKSSKTKPFRCKPCQYEAESEEQFVHHIRVHSAKKFFVEESAEKQAKARESGSSTAEEGDFSKGPIRCDRCGYNTNRYDHYTAHLKHHTRAGDNERVYKCIICTYTTVSEYHWRKHLRNHFPRKVYTCGKCNYFSDRKNNYVQHVRTHTGERPYKCELCPYSSSQKTHLTRHMRTHSGEKPFKCDQCSYVASNQHEVTRHARQVHNGPKPLNCPHCDYKTADRSNFKKHVELHVNPRQFNCPVCDYAASKKCNLQYHFKSKHPTCPNKTMDVSKVKLKKTKKREADLPDNITNEKTEIEQTKIKGDVAGKKNEKSVKAEKRDVSKEKKPSNNVSVIQVTTRTRKSVTEVKEMDVHTGSNSEKFSKTKKSKRKLEVDSHSLHGPVNDEESSTKKKKKVESKSKNNSQEVPKGDSKVEENKKQNTCMKKSTKKKTLKNKSSKKSSKPPQKEPVEKGSAQMDPPQMGPAPTEAVQKGPVQVEPPPPMEHAQMEGAQIRPAPDEPVQMEVVQEGPAQKELLPPVEPAQMVGAQIVLAHMELPPPMETAQTEVAQMGPAPMEPAQMEVAQVESAPMQVVQKEPVQMELSPPMEVVQKEPVQIELSPPMEVVQKEPVKIELSPPIEVVQKEPVQMELSPPMGVVQKEPAQREPPPPREPPLHMEPISKKPPLRKDKKEKSNMQSERARKEQVLIEVGLVPVKDSWLLKESVSTEDLSPPSPPLPKENLREEASGDQKLLNTGEGNKEAPLQKVGAEEADESLPGLAANINESTHISSSGQNLNTPEGETLNGKHQTDSIVCEMKMDTDQNTRENLTGINSTVEEPVSPMLPPSAVEEREAVSKTALASPPATMAANESQEIDEDEGIHSHEGSDLSDNMSEGSDDSGLHGARPVPQESSRKNAKEALAVKAAKGDFVCIFCDRSFRKGKDYSKHLNRHLVNVYYLEEAAQGQE
binding [3]: binds
